Some of these results come from one statement about several compounds together.
Target: E. coli β-Glucuronidase (Escherichia coli, UniProt P05804)
Assay: β-Glucuronidase reactivity: enzymatic cleavage of linker-payloads monitored by LCMS
Format: in vitro ADME
Details: 10 μM linker-payload, 300 U/mL enzyme, 50 mM sodium acetate, 37° C.
Description: The susceptibility of the β-glucuronide linker-payloads to enzymatic cleavage was evaluated by treatment of the (107) and (108) linker-payloads with β-glucuronidase, as shown in FIG. 3A-FIG. 3D. This assay allowed the confirmation of the expected release of Exatecan (207) and 3-amino hemiasterlin (201). The cleavage product was monitored using LCMS. 945 μL of 50 mM sodium acetate, 5 μL of 2 mM (107)/(108) linker-payloads stock (final conc.10 μM) and 50 μL of 6 KU/mL E. coli β-Glucuronidase in 0.2% NaCl (final conc.300 U/mL) were mixed and incubated at 37° C. Aliquots (50 μL) were taken at t=0 h, 0.5 h, 1 h, 2 h, 4 h and 24 h, treated with 3 volumes of quench solution (methanol:acetonitrile 5:95 v/v) and analyzed by LCMS.

The chains behind the UniProt entries cited, without tags or fusion partners. Where a name states a change or a piece, a line headed by the entry shows the natural chain unless it says otherwise.
UniProt P05804: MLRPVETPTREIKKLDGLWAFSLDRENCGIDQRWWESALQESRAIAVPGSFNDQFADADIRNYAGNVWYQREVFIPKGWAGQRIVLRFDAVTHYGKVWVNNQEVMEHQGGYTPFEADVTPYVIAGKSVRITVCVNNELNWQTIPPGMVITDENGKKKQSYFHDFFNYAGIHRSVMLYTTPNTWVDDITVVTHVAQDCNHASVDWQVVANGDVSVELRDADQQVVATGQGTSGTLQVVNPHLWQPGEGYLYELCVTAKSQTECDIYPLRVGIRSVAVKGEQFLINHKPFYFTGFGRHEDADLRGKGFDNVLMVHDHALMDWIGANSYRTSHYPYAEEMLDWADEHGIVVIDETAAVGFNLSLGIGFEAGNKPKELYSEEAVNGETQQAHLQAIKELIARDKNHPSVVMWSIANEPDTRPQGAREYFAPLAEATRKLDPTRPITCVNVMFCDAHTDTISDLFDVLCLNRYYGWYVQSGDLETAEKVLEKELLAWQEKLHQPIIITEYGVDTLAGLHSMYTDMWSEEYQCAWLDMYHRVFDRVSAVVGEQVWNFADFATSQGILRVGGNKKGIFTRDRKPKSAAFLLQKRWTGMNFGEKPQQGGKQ

Structure (SMILES)	time by which remaining linker-payload was cleaved [h]
CC[C@@]1(O)C(=O)OCc2c1cc1n(c2=O)Cc2c-1nc1cc(F)c(C)c3c1c2[C@@H](NC(=O)OCc1ccc(O[C@@H]2O[C@H](C(=O)O)[C@@H](O)[C@H](O)[C@H]2O)c(CNC(=O)CCNC(=O)[C@H](CNC(=O)CCOCCOCCOCCOCCOCCOCCOCCOCCOCCOCCOCCOC)NC(=O)CCCCC(=O)N2Cc4ccccc4C#Cc4ccccc42)c1)CC3 [Compound 107, DBCO β-Glucuronide-PEG12-Exatecan]	≤ 24
CN[C@H](C(=O)N[C@H](C(=O)N(C)[C@H](/C=C(\C)C(=O)O)C(C)C)C(C)(C)C)C(C)(C)c1cccc(NC(=O)OCc2ccc(O[C@@H]3O[C@H](C(=O)O)[C@@H](O)[C@H](O)[C@H]3O)c(CNC(=O)CCNC(=O)[C@H](CNC(=O)CCOCCOCCOCCOCCOCCOCCOCCOCCOCCOCCOCCOC)NC(=O)CCCCC(=O)N3Cc4ccccc4C#Cc4ccccc43)c2)c1 [Compound 108]	≤ 24

— US20240091365A1, “BETA-GLUCURONIDE LINKER-PAYLOADS, PROTEIN CONJUGATES THEREOF, AND METHODS THEREOF” (priority 2022, published 2024)
